From publication PMC7819943, “Rice protein-binding microarrays: a tool to detect cis-acting elements near promoter regions in rice”
The other results are listed elsewhere or left out.

Molecular target: T1, OsSMF1 (Oryza sativa, UniProt Q6ZLB0 1-436)
T1 sequence: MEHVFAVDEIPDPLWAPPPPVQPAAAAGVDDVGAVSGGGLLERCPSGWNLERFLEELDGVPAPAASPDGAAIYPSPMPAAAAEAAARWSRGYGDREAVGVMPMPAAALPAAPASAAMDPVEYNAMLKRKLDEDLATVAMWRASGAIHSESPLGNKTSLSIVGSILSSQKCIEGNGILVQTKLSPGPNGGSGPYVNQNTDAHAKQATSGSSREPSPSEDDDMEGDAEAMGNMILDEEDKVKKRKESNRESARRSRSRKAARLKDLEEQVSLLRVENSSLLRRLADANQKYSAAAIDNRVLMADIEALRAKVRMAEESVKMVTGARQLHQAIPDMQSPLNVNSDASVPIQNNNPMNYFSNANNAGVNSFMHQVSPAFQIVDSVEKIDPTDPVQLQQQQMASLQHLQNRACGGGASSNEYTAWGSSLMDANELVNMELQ
Experiment: protein-binding microarray (RPBM); PBS, 2% BSA, 51.3 ng/ul salmon testes DNA, 50 uM zinc acetate, 200 nM TF, 25 C, 1 h; high values mean tight binding
Details: protein: recombinant; tags: N-terminal polyhistidine and DsRed monomer fusion (pET32a); chain copies: 2; label: CyDye5-dUTP incorporated in the synthesized complementary strand; 3' TTTTT single-stranded linker to array surface; dsDNA, one strand shown
In short: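 Binding signal is reported as fluorescence intensity per feature (arbitrary units) from an Axon 4000B scanner. Incubation used 200 nM of each Ni–NTA-purified, N-terminally polyhistidine- and DsRed-fused transcription factor from E. coli BL21-CodonPlus on a double-stranded custom Agilent array for 1 h at 25 °C, with 50 µM zinc acetate in the buffer, followed by washing.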

Sequence	binding signal
CTAGAATGAGTGTTATGGCAGAGTGGTAGATGCTTGAAAACGGAGTCACCTAGTGCAG	29600 fluorescence intensity (a.u.)
CAACAAGCGGGTGGCTGGAAGGTGTGTGTGTGAGAGAGAGCGGAGTCACCTAGTGCAG	3180 fluorescence intensity (a.u.)
ACAATGTGTTTATATATCTCCCACGTGGATTAATTGCTACCGGAGTCACCTAGTGCAG	5540 fluorescence intensity (a.u.)
TAGTTGTGACACGTAGAAGTTGAATTTTAACTTTTATGTTCGGAGTCACCTAGTGCAG	4370 fluorescence intensity (a.u.)
CATACTCGATCTTTATCGTCTCGAAAGTCGGAACACCAGTCGGAGTCACCTAGTGCAG	34700 fluorescence intensity (a.u.)
GTAGCTGACCCATGCTGTGAGCAGCGTCATGCCTGACGCGCGGAGTCACCTAGTGCAG	4160 fluorescence intensity (a.u.)
TTGAGATGTGTGCTCAGACAGTCACAACACCACGTTGACCCGGAGTCACCTAGTGCAG	3730 fluorescence intensity (a.u.)
TGCTCCGCGCGTGCGGCGCTAGGGTTTCCTTCCTTCCTTCCGGAGTCACCTAGTGCAG	3220 fluorescence intensity (a.u.)
GTCCGCTGTTGAGCTTGTGCTACACGTGGCATGGTCCTCCCGGAGTCACCTAGTGCAG	12700 fluorescence intensity (a.u.)
AATCGTGGATGGGGAATCGGTGACGCGCGGGTGGGGCGACCGGAGTCACCTAGTGCAG	4090 fluorescence intensity (a.u.)
ACAAACGAACAAGACATGAAGCCGATGAGTCCAGCAGAGCCGGAGTCACCTAGTGCAG	3170 fluorescence intensity (a.u.)
ATGGCTCTATCATTGACGGTGACGACTGCATATGTTAAGGCGGAGTCACCTAGTGCAG	4460 fluorescence intensity (a.u.)
CTACTACTGGTAAAGTACGCACGTTCTGCACGTGTCACATCGGAGTCACCTAGTGCAG	9280 fluorescence intensity (a.u.)
GCAACACCAACGACGCAGCAATCTCTCTTCCATCTCTCTCCGGAGTCACCTAGTGCAG	3170 fluorescence intensity (a.u.)
CGGGATTCGTGAGGAGGAGGAAGACCTTTTCCCTTCGCGTCGGAGTCACCTAGTGCAG	5370 fluorescence intensity (a.u.)
GCCATTGTATGGCGGTACCGGATTGGGGTGTGACACGGGTCGGAGTCACCTAGTGCAG	3480 fluorescence intensity (a.u.)
GAAGGAGGAGTCACCGTGCGTTGTTACCACTCCACTGCTCCGGAGTCACCTAGTGCAG	4040 fluorescence intensity (a.u.)
CATCTTACTGGTCAGATCCTTGGTCATGCATATCTGTTCCCGGAGTCACCTAGTGCAG	3650 fluorescence intensity (a.u.)
GAGGCCGCGTCCCGCGTGCGTGCGTCTGTCGCGGTCGCGGCGGAGTCACCTAGTGCAG	4170 fluorescence intensity (a.u.)
TCTCTCTCTCGAGCAGAGCAGAGCACGCCGTCATCCTCGTCGGAGTCACCTAGTGCAG	3140 fluorescence intensity (a.u.)
CAAACTCCAGTGTCTCCCCACTCCATAGTGACACTGCGCCCGGAGTCACCTAGTGCAG	4000 fluorescence intensity (a.u.)

Sequence	binding signal
GCGGTTCTTCATCGACAGCCACGTGGCGAGCCCGGAGGCGCGGAGTCACCTAGTGCAG	11900 fluorescence intensity (a.u.)
CCAAACCCTATGCCGCTGAATGCTGATGCTGTTGATGCATCGGAGTCACCTAGTGCAG	4400 fluorescence intensity (a.u.)
ACACTCTACACTCCCACTACTCCGAACACGTGTCGGCCTCCGGAGTCACCTAGTGCAG	11700 fluorescence intensity (a.u.)
ACGTCTCCTCGTCACCACTCGCCACAAGTCCACCGCAGCACGGAGTCACCTAGTGCAG	5360 fluorescence intensity (a.u.)
TACTACAAATCAAAATGCAAGCATATCCAATCATCACCTCCGGAGTCACCTAGTGCAG	3290 fluorescence intensity (a.u.)
CTCATCGTCCTCCACGTGTCCACCCATACACGTGTCGCCACGGAGTCACCTAGTGCAG	29800 fluorescence intensity (a.u.)
TTGTGTCGTTGACCTGCATGTTTTGAATCATGCTGGAAACCGGAGTCACCTAGTGCAG	3700 fluorescence intensity (a.u.)
AAAGAGCGGTGATGACGGTGTGTAGAGTGGCAGTTAGTTGCGGAGTCACCTAGTGCAG	4150 fluorescence intensity (a.u.)
TTACCTTCAATTTCTTCTGCCACACTCAAAGCATAAGCAACGGAGTCACCTAGTGCAG	27200 fluorescence intensity (a.u.)
CGCCCAACCGCCTCCCGCCACACACACACGACACAACCCGCGGAGTCACCTAGTGCAG	3860 fluorescence intensity (a.u.)
GTTTTGGTGGAGTGTTGCATCAGCTCGATGCTCTCGTTGCCGGAGTCACCTAGTGCAG	3470 fluorescence intensity (a.u.)
CTTGTTGGATCATTGCTGATTTCAGTATAATTCGTCAGCACGGAGTCACCTAGTGCAG	5880 fluorescence intensity (a.u.)
GACCCTCCAGCGCAGGTGCTTCTCGTCATCGCCTCCCGACCGGAGTCACCTAGTGCAG	5190 fluorescence intensity (a.u.)
AATTTTCTGCGGGGAAAGCGATAAGGCTCCCGCCGCACCGCGGAGTCACCTAGTGCAG	14700 fluorescence intensity (a.u.)
CGCGTAGCCATTCCCCGCCAGCTGGCAGAAGGCCAAGCAGCGGAGTCACCTAGTGCAG	6360 fluorescence intensity (a.u.)
ACGTTATCCATTGCAAAATCGTACACCGGAAATATTTCTTCGGAGTCACCTAGTGCAG	23700 fluorescence intensity (a.u.)
TCATCTCATATATGGTTTGACCGCGATGGTTTGTTTGCCACGGAGTCACCTAGTGCAG	31900 fluorescence intensity (a.u.)
TGGCATGAATTGTACTACTGACACTACTAGTGTACTATTACGGAGTCACCTAGTGCAG	23800 fluorescence intensity (a.u.)
AGTGATTGTGTTTAATCTTAATGACTCGCTCCCCTCACACCGGAGTCACCTAGTGCAG	3270 fluorescence intensity (a.u.)
GGGTTCAGTTGCCTCCCTGTCAGTCACTAGTGGAACACAGCGGAGTCACCTAGTGCAG	3260 fluorescence intensity (a.u.)
GTTCACTCCTACCCACGACACGCGTCGCGCCGTGTCATCTCGGAGTCACCTAGTGCAG	9430 fluorescence intensity (a.u.)

Laid out differently: entries from further up.
Sequence,binding signal
TTACCTTCAATTTCTTCTGCCACACTCAAAGCATAAGCAACGGAGTCACCTAGTGCAG,27200 fluorescence intensity (a.u.)
CGCCCAACCGCCTCCCGCCACACACACACGACACAACCCGCGGAGTCACCTAGTGCAG,3860 fluorescence intensity (a.u.)
GTTTTGGTGGAGTGTTGCATCAGCTCGATGCTCTCGTTGCCGGAGTCACCTAGTGCAG,3470 fluorescence intensity (a.u.)
